Measured values taken from the supplement of paper PMC11006884.
The entries are a selection whose mix differs from that of the whole data set.

The chains behind the UniProt entries cited, without tags or fusion partners. Where a name states a change or a piece, a line headed by the entry shows the natural chain unless it says otherwise.
UniProt Q9Y230, whole entry: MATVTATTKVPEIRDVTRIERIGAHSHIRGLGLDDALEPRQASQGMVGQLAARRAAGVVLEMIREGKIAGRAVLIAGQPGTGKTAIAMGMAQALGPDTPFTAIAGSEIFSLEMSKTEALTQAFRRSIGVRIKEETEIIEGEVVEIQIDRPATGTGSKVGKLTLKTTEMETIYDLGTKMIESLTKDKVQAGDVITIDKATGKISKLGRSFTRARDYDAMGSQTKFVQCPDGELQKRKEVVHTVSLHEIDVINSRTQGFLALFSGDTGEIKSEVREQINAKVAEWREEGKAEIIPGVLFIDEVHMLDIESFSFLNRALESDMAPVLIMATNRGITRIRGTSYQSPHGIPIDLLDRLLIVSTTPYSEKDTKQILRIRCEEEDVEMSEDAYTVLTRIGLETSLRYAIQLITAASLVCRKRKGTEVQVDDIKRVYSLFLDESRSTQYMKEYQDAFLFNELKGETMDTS
UniProt Q9UNE7: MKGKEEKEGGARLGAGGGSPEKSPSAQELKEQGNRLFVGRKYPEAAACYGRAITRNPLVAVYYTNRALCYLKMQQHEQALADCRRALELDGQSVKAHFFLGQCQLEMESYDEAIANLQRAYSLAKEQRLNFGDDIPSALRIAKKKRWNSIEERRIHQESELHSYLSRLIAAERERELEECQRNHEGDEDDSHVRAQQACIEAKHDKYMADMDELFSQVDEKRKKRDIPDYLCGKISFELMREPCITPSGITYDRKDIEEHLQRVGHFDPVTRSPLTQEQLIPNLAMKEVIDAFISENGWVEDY
UniProt Q9Y3I0: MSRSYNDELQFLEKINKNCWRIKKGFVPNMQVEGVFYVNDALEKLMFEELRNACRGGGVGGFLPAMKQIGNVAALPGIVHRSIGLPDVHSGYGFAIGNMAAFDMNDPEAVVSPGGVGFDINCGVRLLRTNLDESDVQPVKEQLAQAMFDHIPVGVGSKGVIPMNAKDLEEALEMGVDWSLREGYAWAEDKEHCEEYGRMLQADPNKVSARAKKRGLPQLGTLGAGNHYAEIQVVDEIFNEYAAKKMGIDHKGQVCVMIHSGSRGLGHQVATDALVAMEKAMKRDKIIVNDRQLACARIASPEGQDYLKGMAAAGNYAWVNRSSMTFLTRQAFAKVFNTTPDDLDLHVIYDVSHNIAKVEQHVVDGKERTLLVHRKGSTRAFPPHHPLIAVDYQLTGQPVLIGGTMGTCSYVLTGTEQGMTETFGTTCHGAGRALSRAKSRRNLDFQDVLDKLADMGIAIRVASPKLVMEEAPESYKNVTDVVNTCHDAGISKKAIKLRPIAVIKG
UniProt Q9UKV3: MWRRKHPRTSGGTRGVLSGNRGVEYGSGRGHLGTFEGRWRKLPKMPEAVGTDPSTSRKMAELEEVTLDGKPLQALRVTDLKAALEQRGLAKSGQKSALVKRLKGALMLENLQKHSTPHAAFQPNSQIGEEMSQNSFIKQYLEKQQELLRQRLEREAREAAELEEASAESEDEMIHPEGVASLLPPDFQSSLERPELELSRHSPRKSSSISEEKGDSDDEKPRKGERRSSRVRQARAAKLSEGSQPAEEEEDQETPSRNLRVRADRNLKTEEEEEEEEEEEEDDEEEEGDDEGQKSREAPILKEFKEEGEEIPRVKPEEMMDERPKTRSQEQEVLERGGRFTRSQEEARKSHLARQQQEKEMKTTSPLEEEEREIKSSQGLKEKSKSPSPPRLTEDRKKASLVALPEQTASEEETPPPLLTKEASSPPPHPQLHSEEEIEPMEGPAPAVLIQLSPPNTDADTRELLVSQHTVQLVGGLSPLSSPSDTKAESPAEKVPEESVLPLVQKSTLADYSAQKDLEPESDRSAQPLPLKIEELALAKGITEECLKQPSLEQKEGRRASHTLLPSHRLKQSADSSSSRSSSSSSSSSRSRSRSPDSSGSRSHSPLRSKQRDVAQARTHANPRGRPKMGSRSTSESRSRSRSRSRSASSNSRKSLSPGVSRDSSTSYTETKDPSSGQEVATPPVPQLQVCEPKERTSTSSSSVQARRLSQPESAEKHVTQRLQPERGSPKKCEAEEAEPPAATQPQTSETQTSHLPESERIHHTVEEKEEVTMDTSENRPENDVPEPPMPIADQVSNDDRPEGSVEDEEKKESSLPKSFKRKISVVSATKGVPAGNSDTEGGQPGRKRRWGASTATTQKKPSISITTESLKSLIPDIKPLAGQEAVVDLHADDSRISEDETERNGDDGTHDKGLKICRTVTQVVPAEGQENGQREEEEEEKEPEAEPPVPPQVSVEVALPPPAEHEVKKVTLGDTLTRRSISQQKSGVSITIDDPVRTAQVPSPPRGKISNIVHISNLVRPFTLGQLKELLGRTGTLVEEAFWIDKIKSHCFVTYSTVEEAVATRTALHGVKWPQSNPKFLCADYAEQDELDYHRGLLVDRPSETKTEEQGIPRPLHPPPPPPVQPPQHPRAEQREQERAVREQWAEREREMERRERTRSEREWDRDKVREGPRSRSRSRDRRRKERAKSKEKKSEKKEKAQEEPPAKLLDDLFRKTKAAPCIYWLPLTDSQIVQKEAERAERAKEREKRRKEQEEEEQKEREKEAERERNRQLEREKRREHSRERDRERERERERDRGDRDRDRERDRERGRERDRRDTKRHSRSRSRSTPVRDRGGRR
UniProt Q9UJW0, whole entry, looked up: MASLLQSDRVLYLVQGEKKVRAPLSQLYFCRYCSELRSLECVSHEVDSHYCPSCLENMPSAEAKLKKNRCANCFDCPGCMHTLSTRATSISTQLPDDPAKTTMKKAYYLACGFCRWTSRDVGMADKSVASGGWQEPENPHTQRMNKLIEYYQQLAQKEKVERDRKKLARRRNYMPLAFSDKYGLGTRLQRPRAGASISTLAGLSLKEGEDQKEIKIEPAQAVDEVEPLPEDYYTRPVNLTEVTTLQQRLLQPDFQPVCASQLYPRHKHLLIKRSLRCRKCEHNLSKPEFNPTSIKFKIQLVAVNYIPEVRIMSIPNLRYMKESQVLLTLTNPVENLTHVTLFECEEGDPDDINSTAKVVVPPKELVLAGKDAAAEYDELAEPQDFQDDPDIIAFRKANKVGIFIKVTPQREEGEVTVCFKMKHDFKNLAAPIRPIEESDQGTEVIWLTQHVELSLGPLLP
UniProt Q9Y2A7: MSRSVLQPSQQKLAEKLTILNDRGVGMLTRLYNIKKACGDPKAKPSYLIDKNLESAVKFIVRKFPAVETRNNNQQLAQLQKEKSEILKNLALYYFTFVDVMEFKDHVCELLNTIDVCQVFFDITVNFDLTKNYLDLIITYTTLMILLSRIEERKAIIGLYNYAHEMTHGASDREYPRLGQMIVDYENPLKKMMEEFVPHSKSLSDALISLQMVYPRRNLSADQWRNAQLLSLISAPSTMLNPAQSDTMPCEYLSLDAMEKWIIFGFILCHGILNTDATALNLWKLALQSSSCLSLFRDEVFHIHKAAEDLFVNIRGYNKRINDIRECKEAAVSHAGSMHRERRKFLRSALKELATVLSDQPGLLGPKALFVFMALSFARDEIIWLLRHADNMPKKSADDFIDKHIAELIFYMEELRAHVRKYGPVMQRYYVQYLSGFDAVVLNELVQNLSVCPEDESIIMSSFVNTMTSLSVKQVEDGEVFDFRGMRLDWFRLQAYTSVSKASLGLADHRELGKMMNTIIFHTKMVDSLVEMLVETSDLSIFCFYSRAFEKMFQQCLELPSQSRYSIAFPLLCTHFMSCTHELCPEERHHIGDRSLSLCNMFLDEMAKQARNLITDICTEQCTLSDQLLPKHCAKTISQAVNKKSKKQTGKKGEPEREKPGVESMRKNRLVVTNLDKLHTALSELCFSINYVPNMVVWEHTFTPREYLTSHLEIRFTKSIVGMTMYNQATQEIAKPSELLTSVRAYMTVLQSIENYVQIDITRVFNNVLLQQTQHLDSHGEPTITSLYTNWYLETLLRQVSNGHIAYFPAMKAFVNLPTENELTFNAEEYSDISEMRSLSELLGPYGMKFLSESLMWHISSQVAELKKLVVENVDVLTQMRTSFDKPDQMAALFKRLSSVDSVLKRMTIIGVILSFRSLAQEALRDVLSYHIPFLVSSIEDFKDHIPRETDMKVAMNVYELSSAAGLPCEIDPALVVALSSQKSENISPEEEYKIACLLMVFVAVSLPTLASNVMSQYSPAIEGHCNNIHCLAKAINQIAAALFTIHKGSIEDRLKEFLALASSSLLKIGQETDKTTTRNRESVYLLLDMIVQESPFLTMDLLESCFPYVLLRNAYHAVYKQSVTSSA
UniProt Q9UKN8: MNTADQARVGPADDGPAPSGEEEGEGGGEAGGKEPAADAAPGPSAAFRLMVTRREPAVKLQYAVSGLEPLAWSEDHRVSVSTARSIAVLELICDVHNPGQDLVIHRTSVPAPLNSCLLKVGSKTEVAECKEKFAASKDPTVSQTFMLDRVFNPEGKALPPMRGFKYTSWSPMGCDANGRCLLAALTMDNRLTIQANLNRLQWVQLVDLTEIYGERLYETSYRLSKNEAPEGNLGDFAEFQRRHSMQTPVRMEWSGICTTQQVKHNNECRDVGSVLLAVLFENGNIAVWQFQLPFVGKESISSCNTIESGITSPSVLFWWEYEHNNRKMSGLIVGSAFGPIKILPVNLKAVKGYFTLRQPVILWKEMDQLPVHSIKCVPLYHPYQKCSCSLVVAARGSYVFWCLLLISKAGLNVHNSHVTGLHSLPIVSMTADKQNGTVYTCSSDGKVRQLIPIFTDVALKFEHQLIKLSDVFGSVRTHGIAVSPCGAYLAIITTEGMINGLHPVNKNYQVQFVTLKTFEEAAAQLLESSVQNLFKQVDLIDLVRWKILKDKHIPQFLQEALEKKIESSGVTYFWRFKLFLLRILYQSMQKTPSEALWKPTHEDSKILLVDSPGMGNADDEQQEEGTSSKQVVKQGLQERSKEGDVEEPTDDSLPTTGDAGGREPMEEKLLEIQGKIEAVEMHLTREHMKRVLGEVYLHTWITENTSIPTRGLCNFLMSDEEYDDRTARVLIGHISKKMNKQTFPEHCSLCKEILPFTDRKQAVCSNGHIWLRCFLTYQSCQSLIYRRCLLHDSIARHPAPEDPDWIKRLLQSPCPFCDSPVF
UniProt Q9UK45: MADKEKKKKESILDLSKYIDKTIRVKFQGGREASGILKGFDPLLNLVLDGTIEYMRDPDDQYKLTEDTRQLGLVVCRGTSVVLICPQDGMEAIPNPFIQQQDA
UniProt Q9ULV4, whole entry, looked up: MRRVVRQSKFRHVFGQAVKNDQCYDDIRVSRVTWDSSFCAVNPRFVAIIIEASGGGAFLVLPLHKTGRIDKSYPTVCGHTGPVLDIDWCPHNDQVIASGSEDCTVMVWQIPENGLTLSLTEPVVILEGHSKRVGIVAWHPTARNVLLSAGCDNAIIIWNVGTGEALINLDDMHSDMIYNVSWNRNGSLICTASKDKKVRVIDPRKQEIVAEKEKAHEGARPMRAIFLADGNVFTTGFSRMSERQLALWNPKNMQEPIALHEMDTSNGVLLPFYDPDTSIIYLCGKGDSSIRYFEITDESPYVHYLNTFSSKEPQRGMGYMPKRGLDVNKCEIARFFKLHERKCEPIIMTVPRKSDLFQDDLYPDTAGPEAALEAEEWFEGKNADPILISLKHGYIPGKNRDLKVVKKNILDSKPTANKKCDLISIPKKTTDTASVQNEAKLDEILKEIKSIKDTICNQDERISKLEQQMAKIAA
UniProt Q9ULE6: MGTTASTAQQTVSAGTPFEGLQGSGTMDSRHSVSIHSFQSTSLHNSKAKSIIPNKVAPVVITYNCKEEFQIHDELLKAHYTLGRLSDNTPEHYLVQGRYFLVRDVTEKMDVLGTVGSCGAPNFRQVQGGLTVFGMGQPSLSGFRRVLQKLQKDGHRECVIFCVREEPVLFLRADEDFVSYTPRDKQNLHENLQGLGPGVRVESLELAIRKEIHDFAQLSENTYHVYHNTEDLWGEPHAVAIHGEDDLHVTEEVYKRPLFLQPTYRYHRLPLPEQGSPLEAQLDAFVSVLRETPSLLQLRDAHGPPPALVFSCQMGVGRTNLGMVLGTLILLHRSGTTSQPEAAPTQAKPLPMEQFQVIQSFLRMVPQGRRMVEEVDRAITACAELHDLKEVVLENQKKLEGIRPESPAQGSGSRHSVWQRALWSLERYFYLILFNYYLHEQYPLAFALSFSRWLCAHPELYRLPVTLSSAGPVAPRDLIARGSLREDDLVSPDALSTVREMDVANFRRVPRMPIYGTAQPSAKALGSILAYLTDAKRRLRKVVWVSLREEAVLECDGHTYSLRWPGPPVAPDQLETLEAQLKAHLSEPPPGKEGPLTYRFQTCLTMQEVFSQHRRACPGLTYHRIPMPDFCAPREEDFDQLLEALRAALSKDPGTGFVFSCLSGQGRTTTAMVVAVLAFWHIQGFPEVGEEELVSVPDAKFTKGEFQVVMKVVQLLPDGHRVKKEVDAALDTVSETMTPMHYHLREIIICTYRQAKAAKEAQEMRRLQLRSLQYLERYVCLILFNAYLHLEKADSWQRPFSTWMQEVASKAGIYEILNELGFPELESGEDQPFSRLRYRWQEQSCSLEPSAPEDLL

compound: COC(=O)C#Cc1ccccc1 [methyl 3-phenylpropiolate]; assay: log2 ratio of iodoacetamide-alkyne labeling of the cysteine site, DMSO over compound (competition); higher = stronger covalent engagement of the cysteine by the compound, active = 1 or more; conditions: 500 µM; treatment time 1 h; system: HEK293T cell lysate
In short: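 Reporter intensities give each cysteine's log2 competition ratio as the mean of control channels over the mean of compound channels. The samples were HEK293T lysate (2 mg/mL) given vehicle or electrophile (500 µM, 1 h, ambient temperature), then iodoacetamide alkyne (1 h), followed by click coupling to sCIP-TMT reagents, pooling, trypsin digestion overnight at 37 °C, streptavidin enrichment, acid elution, Orbitrap Eclipse LC-MS/MS with FAIMS and FragPipe quantification. Duplicate channels and three replicates were run, and cysteines quantified in only one replicate were discarded.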

log2 ratio of iodoacetamide-alkyne labeling, inactive:
HECTD1 C1893 (UniProt Q9ULT8) -0.11
SRRM2 C2116 (UniProt Q9UQ35) 0.88
RUVBL2 C227 (UniProt Q9Y230) 0.198
COPS3 C25 (UniProt Q9UNS2) 0.12
ZMYND8 C1062 (UniProt Q9ULU4) 0.248
TPX2 C364 (UniProt Q9ULW0) 0.768
RUVBL1 C141 (UniProt Q9Y265) 0.0254
NOB1 C147 (UniProt Q9ULX3) 0.252
FAF1 C260 (UniProt Q9UNN5) 0.0604
EXOSC1 C40 (UniProt Q9Y3B2) 0.2
STUB1 C244 (UniProt Q9UNE7) 0.47
UniProt Q9Y3I0_C193 0.142
ACIN1 C733 (UniProt Q9UKV3) 0.0856
VPS51 C421 (UniProt Q9UID3) -0.193
NUFIP1 C317 (UniProt Q9UHK0) 0.46
DCTN4 C258 (UniProt Q9UJW0) 0.483
MAGED2 C516 (UniProt Q9UNF1) 0.293
HECTD1 C2195 (UniProt Q9ULT8) 0.443
MTMR6 C569 (UniProt Q9Y217) 0.632
NISCH C436 (UniProt Q9Y2I1) 0.294
TPX2 C594 (UniProt Q9ULW0) 0.73
NCKAP1 C618 (UniProt Q9Y2A7) 0.408
NCKAP1 C622 (UniProt Q9Y2A7) 0.408
GTF3C4 C116 (UniProt Q9UKN8) 0.222
UniProt Q9UK61_C429 0.233
ANKRD50 C87 (UniProt Q9ULJ7) 0.248
ACIN1 C1083 (UniProt Q9UKV3) 0.091
LSM7 C85 (UniProt Q9UK45) 0.29
NUDC C188 (UniProt Q9Y266) 0.133
PRR12 C173 (UniProt Q9ULL5) 0.618
CORO1C C456 (UniProt Q9ULV4) 0.0121
DIS3 C533 (UniProt Q9Y2L1) 0.324
GMEB2 C323 (UniProt Q9UKD1) 0.274
CPSF3 C223 (UniProt Q9UKF6) -0.103
SCML2 C324 (UniProt Q9UQR0) 0.501
DDX52 C536 (UniProt Q9Y2R4) 0.566
UniProt Q9ULE6_C845 0.84

Taken from the entries so far for reference:
log2 ratio of iodoacetamide-alkyne labeling, inactive:
NCKAP1 C622 (UniProt Q9Y2A7) 0.408
GTF3C4 C116 (UniProt Q9UKN8) 0.222
